Data source: PubChem BioAssay AID652243 (Drosophila RNAi Screening Center, 2013)
Aim: 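Knock-downs that decrease or increase androgen receptor reporter signal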 (primary screen). System: Drosophila S2R+ cells. Knock-down reagent: long dsRNA against Drosophila genes. Time to read-out: 72 h (48 h, then 24 h hormone). Conditions: synthetic androgen R1881 at 10 nM for 24 h. Measurement: 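Per-well raw luminescence of the androgen-driven firefly reporter and of the Renilla control, two replicates each, without normalisation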. Scale: firefly reporter light: higher = more light from androgen-responsive reporter; Renilla control light: higher = more constitutive control signal (cell number, transfection). Call rule: 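Across duplicate plates, a knock-down whose log firefly/Renilla ratio shifted a set fold down or up from the GFP/LacZ control mean was a hit; the downward cut appears as both 1.5 and 3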. Meaning of the calls: active = hit: reporter lowered or raised; inactive = no hit.
The screen tested about 24,000 reagents; this is a random part of those that have a named target and a result. Over the whole deposit, 246 (1%) are marked active. 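Plates not normalised; calls are printed but the firefly/Renilla ratio behind them is not deposited; fold cut for lowering reported inconsistently.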 The raw values are shown without normalisation. The numbers tell different reagents against one gene apart. Not stated in the record: the amount of reagent.

| target gene | dsRNA no. | firefly reporter light, replicate 1 | firefly reporter light, replicate 2 | Renilla control light, replicate 1 | Renilla control light, replicate 2 | Call |
| --- | --- | --- | --- | --- | --- | --- |
| Fpgs1 (Folylpolyglutamate synthase 1) | 1 | 4.74e5 | 6.38e5 | 3.75e6 | 4.61e6 | inactive |
| Fpgs1 (Folylpolyglutamate synthase 1) | 2 | 5.97e5 | 7.15e5 | 6.42e5 | 7.02e5 | inactive |
| Qsox2 (Quiescin sulfhydryl oxidase 2) | 1 | 66168 | 60036 | 4.91e5 | 4.48e5 | inactive |
| Qsox2 (Quiescin sulfhydryl oxidase 2) | 2 | 3.54e5 | 3.02e5 | 6.86e5 | 6.72e5 | inactive |
| CG13705 | 1 | 1.82e5 | 1.94e5 | 2.43e6 | 3.80e6 | inactive |
| CG13705 | 2 | 7.05e5 | 5.56e5 | 1.92e6 | 1.31e6 | inactive |
| CG13705 | 3 | 1.28e6 | 1.13e6 | 1.14e6 | 1.17e6 | inactive |
| CG3984 | 1 | 2.26e5 | 1.50e5 | 2.85e6 | 2.97e6 | inactive |
| Flo2 (Flotillin 2) | 1 | 4.84e5 | 3.96e5 | 2.68e5 | 1.62e5 | inactive |
| Flo2 (Flotillin 2) | 2 | 5.87e5 | 3.68e5 | 4.33e6 | 3.97e6 | inactive |
| CG13064 | 1 | 3.28e5 | 2.50e5 | 2.76e6 | 2.60e6 | inactive |
| CG2750 | 1 | 6.04e5 | 4.68e5 | 3.58e6 | 2.93e6 | inactive |
| CG5808 | 1 | 55795 | 87058 | 4.69e5 | 4.83e5 | inactive |
| CG4409 | 1 | 54331 | 99037 | 1.12e6 | 1.12e6 | inactive |
| CG4409 | 2 | 3.57e5 | 3.00e5 | 1.35e6 | 1.26e6 | inactive |
| tefu (telomere fusion) | 1 | 1.33e5 | 77601 | 1.68e6 | 1.37e6 | inactive |
| tefu (telomere fusion) | 2 | – | – | – | – | inactive |
| tefu (telomere fusion) | 3 | – | – | – | – | inactive |
| Prosbeta1 (Proteasome beta1 subunit) | 1 | 5.49e5 | 1.67e5 | 6.44e5 | 3.80e5 | inactive |
| Or24a (Odorant receptor 24a) | 1 | 1.47e5 | 1.56e5 | 8.22e5 | 9.39e5 | inactive |
| MCPH1 (Microcephalin) | 1 | 1.51e6 | 1.28e6 | 2.72e6 | 2.23e6 | inactive |
| MCPH1 (Microcephalin) | 2 | 4.09e5 | 2.52e5 | 2.20e6 | 1.49e6 | inactive |
| MCPH1 (Microcephalin) | 3 | 6.79e5 | 8.35e5 | 3.62e5 | 4.36e5 | inactive |
| MCPH1 (Microcephalin) | 4 | 4.73e5 | 7.97e5 | 1.23e6 | 1.73e6 | inactive |

4 entries already listed, ordered by “firefly reporter light, replicate 1”, highest first:
| target gene | dsRNA no. | firefly reporter light, replicate 1 | firefly reporter light, replicate 2 | Renilla control light, replicate 1 | Renilla control light, replicate 2 | Call |
| --- | --- | --- | --- | --- | --- | --- |
| Flo2 (Flotillin 2) | 2 | 5.87e5 | 3.68e5 | 4.33e6 | 3.97e6 | inactive |
| Flo2 (Flotillin 2) | 1 | 4.84e5 | 3.96e5 | 2.68e5 | 1.62e5 | inactive |
| CG13064 | 1 | 3.28e5 | 2.50e5 | 2.76e6 | 2.60e6 | inactive |
| CG3984 | 1 | 2.26e5 | 1.50e5 | 2.85e6 | 2.97e6 | inactive |
